Results: the supplement of paper PMC7666118
Some of the results follow.

Chains of the proteins cited; added tags and fusions are not shown. Lines headed by an entry give the natural chain unless they say otherwise; changes in a name come on top.
UniProt P10619: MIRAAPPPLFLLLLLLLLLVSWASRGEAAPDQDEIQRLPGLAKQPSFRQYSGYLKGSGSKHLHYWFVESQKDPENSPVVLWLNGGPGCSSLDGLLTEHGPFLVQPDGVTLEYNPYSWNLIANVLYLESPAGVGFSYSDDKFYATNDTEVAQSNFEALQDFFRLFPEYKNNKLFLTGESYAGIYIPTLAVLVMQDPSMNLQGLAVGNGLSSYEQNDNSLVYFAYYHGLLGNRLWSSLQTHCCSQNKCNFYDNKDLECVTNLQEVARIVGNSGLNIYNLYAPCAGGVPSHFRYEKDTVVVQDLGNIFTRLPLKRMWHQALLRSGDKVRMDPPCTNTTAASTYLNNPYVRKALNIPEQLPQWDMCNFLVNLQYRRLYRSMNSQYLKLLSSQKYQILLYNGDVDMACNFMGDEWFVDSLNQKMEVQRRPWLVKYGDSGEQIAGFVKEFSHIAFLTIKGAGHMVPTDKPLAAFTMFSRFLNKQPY
UniProt Q9GZR7: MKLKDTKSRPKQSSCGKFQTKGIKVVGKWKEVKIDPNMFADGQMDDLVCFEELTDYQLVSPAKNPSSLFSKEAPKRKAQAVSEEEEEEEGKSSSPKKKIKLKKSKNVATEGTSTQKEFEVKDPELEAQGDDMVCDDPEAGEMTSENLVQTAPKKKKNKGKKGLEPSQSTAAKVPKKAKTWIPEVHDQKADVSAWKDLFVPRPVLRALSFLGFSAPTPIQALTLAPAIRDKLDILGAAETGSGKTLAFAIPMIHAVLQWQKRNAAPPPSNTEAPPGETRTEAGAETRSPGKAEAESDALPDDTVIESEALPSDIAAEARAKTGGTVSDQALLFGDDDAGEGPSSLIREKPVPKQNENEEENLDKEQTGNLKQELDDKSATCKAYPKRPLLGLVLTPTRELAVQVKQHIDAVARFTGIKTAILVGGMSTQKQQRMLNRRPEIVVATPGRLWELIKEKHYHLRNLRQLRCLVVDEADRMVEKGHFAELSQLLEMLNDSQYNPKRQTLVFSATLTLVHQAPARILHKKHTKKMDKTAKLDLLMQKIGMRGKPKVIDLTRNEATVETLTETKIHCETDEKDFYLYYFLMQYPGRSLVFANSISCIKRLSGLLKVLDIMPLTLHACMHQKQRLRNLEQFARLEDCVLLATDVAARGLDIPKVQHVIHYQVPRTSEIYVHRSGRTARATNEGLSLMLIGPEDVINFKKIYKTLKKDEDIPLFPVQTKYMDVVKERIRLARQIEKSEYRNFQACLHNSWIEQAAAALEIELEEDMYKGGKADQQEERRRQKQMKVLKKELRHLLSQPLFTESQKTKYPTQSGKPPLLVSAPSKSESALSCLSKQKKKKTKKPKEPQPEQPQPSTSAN
UniProt O75935, whole entry: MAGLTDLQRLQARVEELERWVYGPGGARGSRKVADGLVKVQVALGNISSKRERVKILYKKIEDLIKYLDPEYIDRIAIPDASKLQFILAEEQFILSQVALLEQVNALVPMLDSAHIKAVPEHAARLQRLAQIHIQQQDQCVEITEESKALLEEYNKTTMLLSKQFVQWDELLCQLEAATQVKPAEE
UniProt P07108: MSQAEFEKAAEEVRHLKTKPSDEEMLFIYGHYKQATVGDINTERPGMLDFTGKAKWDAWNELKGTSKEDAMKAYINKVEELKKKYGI
UniProt Q9Y485, whole entry: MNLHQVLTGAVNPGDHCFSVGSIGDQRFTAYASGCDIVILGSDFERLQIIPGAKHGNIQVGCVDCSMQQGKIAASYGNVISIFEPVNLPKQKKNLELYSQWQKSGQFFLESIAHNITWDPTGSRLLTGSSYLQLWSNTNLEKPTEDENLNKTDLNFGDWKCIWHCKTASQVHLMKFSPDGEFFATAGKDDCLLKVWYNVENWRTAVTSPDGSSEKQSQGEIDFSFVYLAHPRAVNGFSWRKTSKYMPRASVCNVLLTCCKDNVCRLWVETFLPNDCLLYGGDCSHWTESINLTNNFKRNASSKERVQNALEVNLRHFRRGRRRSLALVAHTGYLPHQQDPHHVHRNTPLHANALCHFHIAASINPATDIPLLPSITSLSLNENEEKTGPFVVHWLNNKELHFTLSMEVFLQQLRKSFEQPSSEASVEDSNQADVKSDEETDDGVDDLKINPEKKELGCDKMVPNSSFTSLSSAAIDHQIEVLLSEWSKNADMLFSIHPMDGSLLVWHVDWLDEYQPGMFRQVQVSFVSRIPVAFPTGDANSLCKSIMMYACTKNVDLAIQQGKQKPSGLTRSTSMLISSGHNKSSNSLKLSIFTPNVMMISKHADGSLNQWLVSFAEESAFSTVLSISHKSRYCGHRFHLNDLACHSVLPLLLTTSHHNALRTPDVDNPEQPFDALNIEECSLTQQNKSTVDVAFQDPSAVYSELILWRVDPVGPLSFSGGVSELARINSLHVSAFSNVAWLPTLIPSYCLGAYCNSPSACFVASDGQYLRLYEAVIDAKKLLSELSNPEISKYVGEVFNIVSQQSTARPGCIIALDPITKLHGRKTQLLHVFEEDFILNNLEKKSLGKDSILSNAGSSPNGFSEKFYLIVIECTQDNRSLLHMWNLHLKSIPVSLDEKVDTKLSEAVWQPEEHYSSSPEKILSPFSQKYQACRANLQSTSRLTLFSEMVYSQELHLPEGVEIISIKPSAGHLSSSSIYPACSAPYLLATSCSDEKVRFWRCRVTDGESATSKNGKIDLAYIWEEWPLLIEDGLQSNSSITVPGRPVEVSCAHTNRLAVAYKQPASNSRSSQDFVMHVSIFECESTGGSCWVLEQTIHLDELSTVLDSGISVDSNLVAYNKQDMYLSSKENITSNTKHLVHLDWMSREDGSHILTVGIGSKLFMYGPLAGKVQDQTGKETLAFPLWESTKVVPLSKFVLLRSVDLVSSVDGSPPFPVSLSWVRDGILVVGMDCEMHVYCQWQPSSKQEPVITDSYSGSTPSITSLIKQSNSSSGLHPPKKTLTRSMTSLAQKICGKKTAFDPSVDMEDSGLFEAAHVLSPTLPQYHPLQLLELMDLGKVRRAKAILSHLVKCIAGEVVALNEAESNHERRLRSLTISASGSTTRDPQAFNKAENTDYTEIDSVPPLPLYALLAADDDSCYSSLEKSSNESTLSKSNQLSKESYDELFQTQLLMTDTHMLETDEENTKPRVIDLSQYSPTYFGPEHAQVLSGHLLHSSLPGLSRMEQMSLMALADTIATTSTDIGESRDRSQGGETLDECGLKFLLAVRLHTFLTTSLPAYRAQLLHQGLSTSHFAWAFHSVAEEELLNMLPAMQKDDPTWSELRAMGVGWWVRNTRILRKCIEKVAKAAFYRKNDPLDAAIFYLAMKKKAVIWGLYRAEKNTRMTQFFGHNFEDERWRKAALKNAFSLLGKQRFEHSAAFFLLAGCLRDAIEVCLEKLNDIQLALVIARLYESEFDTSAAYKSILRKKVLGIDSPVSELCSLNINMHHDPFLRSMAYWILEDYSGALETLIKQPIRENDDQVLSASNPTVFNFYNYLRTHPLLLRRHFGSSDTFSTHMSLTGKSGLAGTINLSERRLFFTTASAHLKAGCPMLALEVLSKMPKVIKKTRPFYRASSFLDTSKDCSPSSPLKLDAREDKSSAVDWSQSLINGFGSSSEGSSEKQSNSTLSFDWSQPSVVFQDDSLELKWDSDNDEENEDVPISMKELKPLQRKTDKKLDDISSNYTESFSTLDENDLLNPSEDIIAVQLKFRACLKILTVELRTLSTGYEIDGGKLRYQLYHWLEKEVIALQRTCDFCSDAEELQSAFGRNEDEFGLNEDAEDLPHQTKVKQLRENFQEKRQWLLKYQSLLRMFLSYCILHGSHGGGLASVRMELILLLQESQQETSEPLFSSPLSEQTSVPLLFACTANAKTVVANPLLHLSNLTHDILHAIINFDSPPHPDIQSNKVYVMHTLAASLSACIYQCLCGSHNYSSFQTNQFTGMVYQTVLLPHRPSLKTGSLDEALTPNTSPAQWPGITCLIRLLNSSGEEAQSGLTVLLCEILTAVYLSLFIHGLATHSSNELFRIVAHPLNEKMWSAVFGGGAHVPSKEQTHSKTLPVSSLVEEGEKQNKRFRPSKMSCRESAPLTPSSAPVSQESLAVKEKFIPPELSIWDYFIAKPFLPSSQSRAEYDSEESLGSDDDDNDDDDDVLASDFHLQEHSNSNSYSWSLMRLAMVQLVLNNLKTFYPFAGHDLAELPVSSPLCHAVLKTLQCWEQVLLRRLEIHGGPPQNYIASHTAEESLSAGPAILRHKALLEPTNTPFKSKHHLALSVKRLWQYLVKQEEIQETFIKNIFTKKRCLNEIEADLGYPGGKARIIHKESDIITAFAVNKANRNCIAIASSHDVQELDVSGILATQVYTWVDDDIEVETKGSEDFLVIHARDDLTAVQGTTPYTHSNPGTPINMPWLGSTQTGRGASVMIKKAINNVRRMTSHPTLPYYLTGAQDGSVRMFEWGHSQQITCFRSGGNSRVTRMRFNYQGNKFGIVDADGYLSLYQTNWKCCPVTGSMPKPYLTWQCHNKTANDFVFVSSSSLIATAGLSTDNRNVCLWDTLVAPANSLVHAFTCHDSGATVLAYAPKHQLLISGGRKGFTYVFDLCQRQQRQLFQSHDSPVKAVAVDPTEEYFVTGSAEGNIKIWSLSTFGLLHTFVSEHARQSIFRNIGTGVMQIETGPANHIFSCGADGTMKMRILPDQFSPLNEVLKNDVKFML
UniProt Q14118: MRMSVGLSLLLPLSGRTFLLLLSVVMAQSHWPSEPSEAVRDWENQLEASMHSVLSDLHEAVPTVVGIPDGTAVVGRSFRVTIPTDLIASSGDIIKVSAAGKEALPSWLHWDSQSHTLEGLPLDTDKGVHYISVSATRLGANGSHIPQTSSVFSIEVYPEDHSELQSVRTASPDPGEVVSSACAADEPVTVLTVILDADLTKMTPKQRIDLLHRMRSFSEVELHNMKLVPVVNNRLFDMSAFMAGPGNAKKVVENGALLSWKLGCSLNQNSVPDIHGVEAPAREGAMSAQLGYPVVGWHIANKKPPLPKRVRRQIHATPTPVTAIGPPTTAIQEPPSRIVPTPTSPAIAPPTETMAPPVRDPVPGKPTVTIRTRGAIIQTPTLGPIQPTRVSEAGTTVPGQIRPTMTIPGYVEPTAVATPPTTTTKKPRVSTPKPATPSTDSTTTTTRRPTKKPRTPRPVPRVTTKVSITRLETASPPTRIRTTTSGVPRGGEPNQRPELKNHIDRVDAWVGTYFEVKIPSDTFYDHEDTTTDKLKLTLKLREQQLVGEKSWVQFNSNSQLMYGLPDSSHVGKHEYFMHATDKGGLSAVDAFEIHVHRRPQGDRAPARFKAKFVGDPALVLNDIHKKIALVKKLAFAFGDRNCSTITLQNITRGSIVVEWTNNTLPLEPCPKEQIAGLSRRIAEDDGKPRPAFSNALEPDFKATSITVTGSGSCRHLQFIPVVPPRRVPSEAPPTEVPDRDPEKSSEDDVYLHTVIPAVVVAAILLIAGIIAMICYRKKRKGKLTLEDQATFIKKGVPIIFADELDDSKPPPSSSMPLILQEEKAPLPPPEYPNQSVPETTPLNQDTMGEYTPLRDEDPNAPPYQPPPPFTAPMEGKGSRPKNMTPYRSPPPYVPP
UniProt P00167, whole entry: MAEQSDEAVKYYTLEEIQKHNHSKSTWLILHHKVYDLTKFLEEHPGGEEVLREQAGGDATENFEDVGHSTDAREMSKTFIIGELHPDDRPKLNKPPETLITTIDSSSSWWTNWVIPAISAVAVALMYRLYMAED
UniProt P39656: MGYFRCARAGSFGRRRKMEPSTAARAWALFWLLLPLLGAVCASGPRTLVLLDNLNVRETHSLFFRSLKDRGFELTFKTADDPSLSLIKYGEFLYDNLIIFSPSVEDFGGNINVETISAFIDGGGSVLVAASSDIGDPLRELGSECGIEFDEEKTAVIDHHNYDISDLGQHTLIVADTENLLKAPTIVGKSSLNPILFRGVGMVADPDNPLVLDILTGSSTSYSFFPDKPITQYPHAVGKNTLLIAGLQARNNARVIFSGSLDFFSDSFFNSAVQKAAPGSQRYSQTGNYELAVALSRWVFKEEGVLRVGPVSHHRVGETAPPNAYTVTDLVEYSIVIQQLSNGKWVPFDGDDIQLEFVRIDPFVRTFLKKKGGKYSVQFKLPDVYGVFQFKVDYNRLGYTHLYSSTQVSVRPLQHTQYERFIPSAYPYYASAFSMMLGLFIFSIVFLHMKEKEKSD
UniProt P49366: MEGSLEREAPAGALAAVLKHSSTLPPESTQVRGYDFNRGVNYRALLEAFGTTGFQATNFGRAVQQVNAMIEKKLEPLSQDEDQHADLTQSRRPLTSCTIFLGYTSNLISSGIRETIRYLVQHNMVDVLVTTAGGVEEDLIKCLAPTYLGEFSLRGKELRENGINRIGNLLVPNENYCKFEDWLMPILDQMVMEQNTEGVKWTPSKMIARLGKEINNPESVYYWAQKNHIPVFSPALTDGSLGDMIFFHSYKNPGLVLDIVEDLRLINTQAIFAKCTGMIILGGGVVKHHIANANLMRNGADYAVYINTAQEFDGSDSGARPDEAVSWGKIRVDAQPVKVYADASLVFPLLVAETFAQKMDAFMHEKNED
UniProt P51397: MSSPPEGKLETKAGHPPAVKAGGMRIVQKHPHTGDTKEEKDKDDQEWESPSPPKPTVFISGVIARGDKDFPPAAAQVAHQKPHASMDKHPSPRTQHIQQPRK

These targets were tested with COc1ccc(Cn2ccc3cc(C)c(C(=O)NO)cc32)cc1 (assay: dose-dependent thermal stabilisation call (2D-TPP, DLPTP, 10% FDR) (binary (1 = stabilised)); higher = stabilised by the compound). Settings: system: HL-60 intact cells; concentration range 0.04-10 µM.
Description: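 2D thermal proteome profiling in intact HL-60 cells treated with BRD-3811 (0, 0.04, 0.29, 2, 10 uM) for 90 min at 37 C, then heated 3 min at one of 12 temperatures (42-63.9 C). Soluble protein was quantified by TMT10 MS. The value is the DLPTP call of the paper: dose-dependent thermal stabilisation over all temperatures at 10% FDR (F-test of a dose-response against a flat model); one experiment, one call per tested protein.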
For CTSA (UniProt P10619), the “dose-dependent thermal stabilisation call” value was inactive: 0. For DLD (UniProt P09622), the “dose-dependent thermal stabilisation call” value was inactive: 0. For DPP7 (UniProt Q9UHL4), the “dose-dependent thermal stabilisation call” value was inactive: 0. In the case of DDX24 (UniProt Q9GZR7), the “dose-dependent thermal stabilisation call” value is reported as inactive: 0. In the case of DCTN3 (UniProt O75935), the “dose-dependent thermal stabilisation call” value is reported as inactive: 0. In the case of DNAJC21 (UniProt Q5F1R6), the “dose-dependent thermal stabilisation call” value is reported as inactive: 0. In the case of DDI2 (UniProt Q5TDH0), the “dose-dependent thermal stabilisation call” value is reported as inactive: 0. DBI (UniProt P07108) was tested, and the “dose-dependent thermal stabilisation call” value was inactive: 0. In the case of CSRP1 (UniProt P21291), the “dose-dependent thermal stabilisation call” value is reported as inactive: 0. With DPP9 (UniProt Q86TI2) the “dose-dependent thermal stabilisation call” value was inactive: 0. With CTBP1 (UniProt Q13363) the “dose-dependent thermal stabilisation call” value was inactive: 0. DOCK2 (UniProt Q92608) was tested, and the “dose-dependent thermal stabilisation call” value was inactive: 0. With CXORF56 (UniProt Q9H5V9) the “dose-dependent thermal stabilisation call” value was inactive: 0. DERA (UniProt Q9Y315) was tested, and the “dose-dependent thermal stabilisation call” value was inactive: 0. In the case of DKFZP761E198, the “dose-dependent thermal stabilisation call” value is reported as inactive: 0. DMXL1 (UniProt Q9Y485) was tested, and the “dose-dependent thermal stabilisation call” value was inactive: 0. For DENND1C (UniProt Q8IV53), the “dose-dependent thermal stabilisation call” value was inactive: 0. For CTSW (UniProt P56202), the “dose-dependent thermal stabilisation call” value was inactive: 0. In the case of DIABLO (UniProt Q9NR28), the “dose-dependent thermal stabilisation call” value is reported as inactive: 0. In the case of DIAPH1 (UniProt O60610), the “dose-dependent thermal stabilisation call” value is reported as inactive: 0. With DDX28 (UniProt Q9NUL7) the “dose-dependent thermal stabilisation call” value was inactive: 0. CXXC1 (UniProt Q9P0U4) was tested, and the “dose-dependent thermal stabilisation call” value was inactive: 0. With DAG1 (UniProt Q14118) the “dose-dependent thermal stabilisation call” value was inactive: 0. For CYB5A (UniProt P00167), the “dose-dependent thermal stabilisation call” value was inactive: 0. For DDOST (UniProt P39656), the “dose-dependent thermal stabilisation call” value was inactive: 0. With DDX21 (UniProt Q9NR30) the “dose-dependent thermal stabilisation call” value was inactive: 0. For DBR1 (UniProt Q9UK59), the “dose-dependent thermal stabilisation call” value was inactive: 0. In the case of DCAKD (UniProt Q8WVC6), the “dose-dependent thermal stabilisation call” value is reported as inactive: 0. With CUL3 (UniProt Q13618) the “dose-dependent thermal stabilisation call” value was inactive: 0. With DHPS (UniProt P49366) the “dose-dependent thermal stabilisation call” value was inactive: 0. For DAP (UniProt P51397), the “dose-dependent thermal stabilisation call” value was inactive: 0. DENND1B (UniProt Q6P3S1) was tested, and the “dose-dependent thermal stabilisation call” value was inactive: 0. DFFB (UniProt O76075) was tested, and the “dose-dependent thermal stabilisation call” value was inactive: 0. With CXADR (UniProt P78310) the “dose-dependent thermal stabilisation call” value was inactive: 0. With DOCK6 (UniProt Q96HP0) the “dose-dependent thermal stabilisation call” value was inactive: 0. For DPP3 (UniProt Q9NY33), the “dose-dependent thermal stabilisation call” value was inactive: 0.
